The results in this text go back to patent US20250092067A1, “APT1 and APT2 Inhibitors and Uses Thereof” (Cornell University, priority 2021, published 2025).

The chains behind the UniProt entries cited, without tags or fusion partners.
UniProt O95372, whole entry: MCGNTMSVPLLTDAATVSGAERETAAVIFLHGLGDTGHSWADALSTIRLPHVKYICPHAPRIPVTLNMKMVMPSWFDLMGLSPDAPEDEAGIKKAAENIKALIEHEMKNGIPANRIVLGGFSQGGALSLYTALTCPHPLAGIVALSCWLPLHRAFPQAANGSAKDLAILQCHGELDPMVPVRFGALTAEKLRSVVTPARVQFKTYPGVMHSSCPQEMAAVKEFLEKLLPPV
UniProt O75608, whole entry: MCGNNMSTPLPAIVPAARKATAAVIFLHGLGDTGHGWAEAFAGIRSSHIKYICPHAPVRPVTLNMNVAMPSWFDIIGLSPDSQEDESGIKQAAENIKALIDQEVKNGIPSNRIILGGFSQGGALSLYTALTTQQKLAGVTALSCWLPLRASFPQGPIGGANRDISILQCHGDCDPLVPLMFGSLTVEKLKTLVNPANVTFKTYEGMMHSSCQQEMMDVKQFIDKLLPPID

The target in assay [1] is APT2 (Homo sapiens, UniProt O95372). The experiment in a line: APT2 enzymatic assay, resorufin acetate as fluorogenic substrate. Type of assay: biochemical. The conditions noted are these: read-out: IC50 APT2; Table 3, class symbols.
The target in assay [2] is APT1 (Homo sapiens, UniProt O75608). Description: APT1 enzymatic assay, resorufin acetate as fluorogenic substrate. It is filed as biochemical. The note with it: read-out: IC50 APT1; Table 3, class symbols.

pIC50: −log10 of the molar value. The match of structure and compound is tentative. Bounds are passed on as bounds.

The pIC50 is the negative decadic logarithm of the IC50, by convention in mol/L. In the case of `CN(C)c1ccc(N2CCN(C(=O)c3cc4c(s3)-c3ccccc3S(=O)(=O)C4)CC2)cc1`, the negative-log IC50 (pIC50) in assay [1] is 4.40 to 6.00; in assay [2], under 4.40.
